Test results from patent US20250206828A1, “ANTI-ADENOSINE RECEPTOR (A2aR) ANTIBODIES AND THE USE THEREOF” (Adept Therapeutics Inc., priority 2022, published 2025).

Tests used:
[1] = target: cynomolgus adenosine A2A receptor (A2aR) (cynomolgus); assay: flow cytometry on cynomolgus PBMC
[2] = target: cynomolgus adenosine A2A receptor (A2aR) (cynomolgus); assay: flow cytometry on cynomolgus PBMC, FIG. 4B

B1: Hu3F6-H3/Hu3F6-L5 (antibody, human IgG1, V domains shown)
VH: EVQLVQSGAEVKKPGASVKVSCKTSGFAFTSYWMNWVRQAPGQGLEWIGRIDPSDSEAHYHHKFWGRATLTVDTSSSTVYMELSSLRSEDTAVYYCLRSLYGKGDYWGHGTTVTVSS
VL: DVVMTQTPLSLSVTPGQPASISCRSSQSLVHRNGNTYLEWYLQKPGQSPQLLIYKVSNRFSGVPDRFSGSGSGTDFTLKISRVEAEDVGVYYCYQGSHVPLTFGGGTKVEIK
notes: Human IgG1 FES (L234F, L235E, P331S) and human Ig kappa constant domains; also called Hu3F6 VH3/VL5; Hu3F6-VH3/VL5
binding [1]: binds
binding [2]: binds

B2: Hu3F6-H5/Hu3F6-L5 (antibody, human IgG1, V domains shown)
VH: B1 VH with H61A, T74K
VL: B1 VL
notes: Human IgG1 FES (L234F, L235E, P331S) and human Ig kappa constant domains; also called Hu3F6 VH5/VL5; Hu3F6-VH5/VL5
binding [1]: binds
binding [2]: binds

Residue numbers refer to the chain shown, from its start. In names and notes the source's numbering stands. Results are given in words; binding and its absence hold for the method and conditions named. Binding calls can cover weak binding; strength is not graded here.
